# Values quoted from earlier work in patent US7514254B2, “Plant-derived alkaline alpha-galactosidase” (The State of Israel, Ministry of Agriculture & Rural …, priority 1998, dated 2009).
# Details: pNPG; literature; cited from earlier work
substance,measurement,value
enzyme described by Zhu et al.: recombinant acid alpha-galactosidase from green coffee beans produced in Pichia pastoris,pH optimum / maximal activity,6.4
same,second pH peak,4.5
